Measured values: paper PMC12095075
No constants are given. Whether binding was seen depends on the method and setting. For part of these data: In cells and extracts the contact can be indirect. Some binding calls cover weakened binding; strength is not graded here. Each block holds one substance with its values, some of them ahead of it.

By UniProt entry, the sequences of proteins in these tests, tags left out. Where a name states a change or a piece, a line headed by the entry shows the natural chain unless it says otherwise. Chains listed by the source or under a name are the forms on record and can include a tag or linker. Residues count along the entry.
N-terminal region of mouse BMAL1 protein (residues 68–488) with a C-terminal Flag tag (Q9WTL8, form named): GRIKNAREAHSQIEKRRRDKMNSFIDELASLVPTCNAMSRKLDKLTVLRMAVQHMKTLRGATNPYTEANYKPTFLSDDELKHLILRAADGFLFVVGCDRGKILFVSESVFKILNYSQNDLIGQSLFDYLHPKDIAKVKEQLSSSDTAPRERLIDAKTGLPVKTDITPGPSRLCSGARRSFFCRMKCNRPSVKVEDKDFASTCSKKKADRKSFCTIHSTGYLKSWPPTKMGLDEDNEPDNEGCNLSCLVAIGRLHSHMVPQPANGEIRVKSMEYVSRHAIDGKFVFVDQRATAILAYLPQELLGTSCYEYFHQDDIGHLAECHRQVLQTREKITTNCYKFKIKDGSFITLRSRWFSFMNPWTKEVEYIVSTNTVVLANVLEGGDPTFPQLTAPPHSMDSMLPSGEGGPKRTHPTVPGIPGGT
BMAL1–Flag (pcDNA3-mBmal1) (Q9WTL8, form named): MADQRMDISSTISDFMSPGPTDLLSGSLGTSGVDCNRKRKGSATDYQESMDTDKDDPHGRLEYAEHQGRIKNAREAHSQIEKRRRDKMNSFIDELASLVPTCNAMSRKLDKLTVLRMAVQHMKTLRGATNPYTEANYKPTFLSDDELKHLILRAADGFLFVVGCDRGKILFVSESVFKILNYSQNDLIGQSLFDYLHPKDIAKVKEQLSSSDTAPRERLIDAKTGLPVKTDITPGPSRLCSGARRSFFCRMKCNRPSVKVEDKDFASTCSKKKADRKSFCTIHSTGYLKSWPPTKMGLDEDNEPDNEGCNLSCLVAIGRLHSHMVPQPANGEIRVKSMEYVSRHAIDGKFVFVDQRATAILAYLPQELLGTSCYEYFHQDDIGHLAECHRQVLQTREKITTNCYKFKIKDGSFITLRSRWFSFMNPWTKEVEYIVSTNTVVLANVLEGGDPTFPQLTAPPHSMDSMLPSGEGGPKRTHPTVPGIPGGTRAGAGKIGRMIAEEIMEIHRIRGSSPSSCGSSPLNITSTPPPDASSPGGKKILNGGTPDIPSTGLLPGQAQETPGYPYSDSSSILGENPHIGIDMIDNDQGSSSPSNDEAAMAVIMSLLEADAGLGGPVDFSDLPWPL
UniProt Q99814: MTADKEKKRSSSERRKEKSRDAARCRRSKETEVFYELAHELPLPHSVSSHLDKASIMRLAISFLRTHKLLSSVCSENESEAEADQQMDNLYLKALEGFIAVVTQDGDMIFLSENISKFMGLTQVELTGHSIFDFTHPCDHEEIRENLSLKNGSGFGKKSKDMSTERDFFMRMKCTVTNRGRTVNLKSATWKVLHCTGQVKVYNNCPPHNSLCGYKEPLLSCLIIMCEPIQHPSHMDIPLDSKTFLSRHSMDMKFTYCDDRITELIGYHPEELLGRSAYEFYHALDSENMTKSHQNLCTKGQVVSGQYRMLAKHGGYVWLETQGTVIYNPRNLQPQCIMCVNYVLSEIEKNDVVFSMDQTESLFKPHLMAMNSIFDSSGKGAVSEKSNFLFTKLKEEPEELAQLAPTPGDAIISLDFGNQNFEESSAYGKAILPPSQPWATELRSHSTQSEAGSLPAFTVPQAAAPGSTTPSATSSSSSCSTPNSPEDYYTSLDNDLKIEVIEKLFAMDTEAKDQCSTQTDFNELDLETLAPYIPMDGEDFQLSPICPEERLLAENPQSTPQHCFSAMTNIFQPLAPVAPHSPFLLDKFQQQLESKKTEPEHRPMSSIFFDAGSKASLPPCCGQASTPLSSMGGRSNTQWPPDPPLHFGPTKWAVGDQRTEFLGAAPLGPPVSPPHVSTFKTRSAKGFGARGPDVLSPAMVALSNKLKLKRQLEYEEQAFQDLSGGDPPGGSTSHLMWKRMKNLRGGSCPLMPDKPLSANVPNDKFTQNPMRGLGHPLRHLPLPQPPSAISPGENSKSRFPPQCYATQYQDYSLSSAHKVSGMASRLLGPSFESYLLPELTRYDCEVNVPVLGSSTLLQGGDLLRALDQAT
UniProt Q16665: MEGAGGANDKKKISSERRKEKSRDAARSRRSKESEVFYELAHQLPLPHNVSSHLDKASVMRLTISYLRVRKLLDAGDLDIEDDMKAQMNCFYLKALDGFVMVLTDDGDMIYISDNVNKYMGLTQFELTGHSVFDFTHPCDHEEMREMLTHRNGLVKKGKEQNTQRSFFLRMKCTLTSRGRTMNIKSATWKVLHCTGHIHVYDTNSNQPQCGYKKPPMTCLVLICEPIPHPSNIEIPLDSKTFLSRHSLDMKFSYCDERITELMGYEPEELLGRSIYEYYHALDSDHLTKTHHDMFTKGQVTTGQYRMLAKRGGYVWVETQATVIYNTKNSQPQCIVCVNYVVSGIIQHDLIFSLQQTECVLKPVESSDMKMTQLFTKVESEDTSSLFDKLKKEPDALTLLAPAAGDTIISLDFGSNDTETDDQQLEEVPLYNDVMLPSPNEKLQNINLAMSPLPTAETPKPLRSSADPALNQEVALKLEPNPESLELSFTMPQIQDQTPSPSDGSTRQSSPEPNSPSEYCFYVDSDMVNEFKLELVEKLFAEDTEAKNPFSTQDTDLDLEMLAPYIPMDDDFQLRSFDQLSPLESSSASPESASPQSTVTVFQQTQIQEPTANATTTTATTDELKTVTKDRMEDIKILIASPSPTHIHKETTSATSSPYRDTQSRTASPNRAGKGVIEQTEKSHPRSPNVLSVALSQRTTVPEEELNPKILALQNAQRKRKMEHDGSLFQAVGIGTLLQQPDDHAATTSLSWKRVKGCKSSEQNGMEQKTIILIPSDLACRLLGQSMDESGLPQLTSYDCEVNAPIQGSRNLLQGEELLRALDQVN
UniProt Q61221: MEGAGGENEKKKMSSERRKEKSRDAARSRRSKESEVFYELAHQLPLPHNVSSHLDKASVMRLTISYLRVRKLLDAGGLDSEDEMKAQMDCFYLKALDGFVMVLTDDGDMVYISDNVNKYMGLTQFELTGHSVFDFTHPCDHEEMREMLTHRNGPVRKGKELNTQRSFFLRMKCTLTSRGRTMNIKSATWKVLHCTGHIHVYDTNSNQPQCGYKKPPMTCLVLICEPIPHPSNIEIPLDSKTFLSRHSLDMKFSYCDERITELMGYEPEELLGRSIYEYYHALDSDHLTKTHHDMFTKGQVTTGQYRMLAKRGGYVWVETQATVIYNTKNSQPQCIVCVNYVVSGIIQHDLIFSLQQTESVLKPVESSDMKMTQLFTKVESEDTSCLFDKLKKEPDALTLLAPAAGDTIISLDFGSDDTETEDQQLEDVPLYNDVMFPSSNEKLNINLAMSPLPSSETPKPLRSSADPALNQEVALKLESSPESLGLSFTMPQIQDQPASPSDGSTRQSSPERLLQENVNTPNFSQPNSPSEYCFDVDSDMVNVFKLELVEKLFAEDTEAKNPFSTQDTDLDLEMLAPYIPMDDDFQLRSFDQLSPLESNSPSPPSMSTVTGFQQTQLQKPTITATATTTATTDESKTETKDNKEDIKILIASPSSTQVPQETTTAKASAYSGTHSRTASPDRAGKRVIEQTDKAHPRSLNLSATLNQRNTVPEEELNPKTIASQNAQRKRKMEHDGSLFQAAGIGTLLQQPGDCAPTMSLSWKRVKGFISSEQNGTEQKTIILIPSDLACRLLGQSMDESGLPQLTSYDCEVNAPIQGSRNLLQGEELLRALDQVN
UniProt O00327: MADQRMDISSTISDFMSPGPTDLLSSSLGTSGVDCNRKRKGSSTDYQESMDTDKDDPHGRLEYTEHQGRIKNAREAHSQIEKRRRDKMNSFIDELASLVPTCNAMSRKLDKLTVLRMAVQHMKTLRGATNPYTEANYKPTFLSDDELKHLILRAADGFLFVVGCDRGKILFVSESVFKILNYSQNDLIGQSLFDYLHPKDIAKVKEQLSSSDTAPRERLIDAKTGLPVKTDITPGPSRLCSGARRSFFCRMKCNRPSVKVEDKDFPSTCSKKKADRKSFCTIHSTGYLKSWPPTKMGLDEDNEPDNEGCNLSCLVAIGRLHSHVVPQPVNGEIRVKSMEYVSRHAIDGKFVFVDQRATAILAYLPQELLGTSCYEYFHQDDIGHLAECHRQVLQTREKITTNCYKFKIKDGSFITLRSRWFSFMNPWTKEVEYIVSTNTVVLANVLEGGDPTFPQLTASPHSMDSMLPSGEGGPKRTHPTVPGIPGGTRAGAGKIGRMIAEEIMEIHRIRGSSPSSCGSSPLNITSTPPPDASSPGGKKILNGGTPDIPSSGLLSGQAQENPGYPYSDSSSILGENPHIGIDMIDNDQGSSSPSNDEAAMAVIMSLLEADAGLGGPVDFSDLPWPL

Key:
[1] = target: N-terminal region of mouse BMAL1 protein (residues 68–488) with a C-terminal Flag tag (mouse) (UniProt Q9WTL8); assay: pull-down; BMAL1-Flag captured from E. coli lysate on anti-Flag M2 beads and washed; purified His-HIF2A or His-HIF1A added, 40 min at 4 °C; 20 mM HEPES pH 7.4, 10% glycerol, 0.01% Triton X-100, 300 mM NaCl, 5 mM MgCl2, 1 mM DTT; eluted with Flag peptide; blots anti-Flag and anti-His; both purified
[2] = target: HIF2A, endogenous in primary human cardiomyocytes (human (endogenous in primary human cardiomyocytes)) (UniProt Q99814); assay: co-IP; endogenous proteins of primary human cardiomyocytes; hypoxia (1% O2) for 0-8 h, or 4 h at CT20 and CT32 after dexamethasone synchronisation; IP with anti-HIF2A; western blot
[3] = target: HIF2A, endogenous in primary human cardiomyocytes (human (endogenous in primary human cardiomyocytes)) (UniProt Q99814); assay: proximity ligation; fixed primary human cardiomyocytes after hypoxia (1% O2; 0, 1, 4 or 8 h); rabbit anti-BMAL1 with mouse anti-HIF2A or mouse anti-HIF1A; Duolink probes
[4] = target: HIF1A, endogenous in primary human cardiomyocytes (human (endogenous in primary human cardiomyocytes)) (UniProt Q16665); assay: as above
[5] = target: BMAL1–Flag (pcDNA3-mBmal1) (mouse) (UniProt Q9WTL8); assay: co-IP; HEK293 cells overexpressing BMAL1-Flag (pcDNA3-mBmal1), normoxia or hypoxia (1% O2, 4 h); cytoplasmic and nuclear fractions; IP with anti-Flag (reciprocal IP with anti-HIF2A in Extended Data Fig. 2b); western blot

binding [1]: binds weakly
Substance: N-terminal portion of mouse HIF1A (residues 13–357) with a 6×His tag at the N terminus (from UniProt Q61221 13-357) (domain or fragment)

binding [2]: binds
binding [3]: binds
binding [4]: binds
Substance: BMAL1, endogenous in primary human cardiomyocytes (from UniProt O00327 1-626)

binding [5]: binds weakly
Substance: HIF1A, endogenous in HEK293 cells (from UniProt Q16665 1-826)

binding [5]: binds
Substance: hypoxia-inducible factor 2 alpha (HIF2A), endogenous in HEK293 cells (from UniProt Q99814 1-870)
